PubChem BioAssay AID652272, Drosophila RNAi Screening Center | 2013
The screen tested about 21,000 reagents; this is an unselected part of those that have a named target and a result. Of all reagents, 503 (2.4%) were called active. 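Raw plate light values, not normalised; calls rest on replicate z-scores that were not deposited; hits include reporter decreases as well as increases.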 Not given: the amount of reagent, the time to read-out.

Test: 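Genome-wide knock-down search for components of Hedgehog signalling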 (primary screen)
Cells: Drosophila clone 8 (Cl8) cells
Reagents: long dsRNA against Drosophila genes
Measured: 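Firefly light from a Hedgehog-responsive ptc promoter reporter and Renilla reference light, both read on a plate reader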
Reading the numbers: firefly Hh reporter signal: higher = more ptc reporter light; Renilla reference signal: higher = more Renilla control light
Rule for the call: 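Called a hit if the two-replicate mean z-score lies below -2 or above +3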
Meaning of the calls: active = hit: reporter lowered or raised; inactive = not a hit

Gene | dsRNA | firefly Hh reporter signal, replicate 1 | firefly Hh reporter signal, replicate 2 | firefly Hh reporter signal, replicate 3 | Renilla reference signal, replicate 1 | Renilla reference signal, replicate 2 | outcome
CG13502 | DRSC04147 | 88012 | 44930 | – | 2432 | 4457 | inactive
ergic53 | DRSC11389 | 46778 | 62352 | – | 5783 | 3752 | inactive
CG9664 | DRSC00725 | 89945 | 88604 | – | 4349 | 4326 | inactive
ND-B22 | DRSC03193 | 73157 | 37680 | – | 2620 | 5130 | active
CG1774 | DRSC15258 | 1.22e5 | 63456 | – | 3037 | 2539 | inactive
CG30466 | DRSC05556 | 1.13e5 | 2.43e5 | – | 8489 | 9753 | inactive
CG10903 | DRSC14281 | 72520 | 1.04e5 | – | 3264 | 3224 | inactive
CG13331 | DRSC06366 | 80699 | 58816 | – | 1904 | 4194 | inactive
side-III | DRSC12155 | 88112 | 97096 | – | 3665 | 2886 | inactive
side-III | DRSC12263 | 68192 | 49421 | – | 2288 | 1440 | inactive
side-III | DRSC12264 | 1.10e5 | 1.43e5 | – | 4514 | 4296 | inactive
CG14324 | DRSC14803 | 80424 | 83796 | – | 2928 | 349 | inactive
ND-39 | DRSC11791 | 89136 | 81789 | – | 3264 | 2885 | inactive
RpL15 | DRSC20963 | 33030 | 51977 | – | 2768 | 6021 | active
CG9760 | DRSC11101 | 25626 | 54228 | 67713 | 4643 | 4251 | inactive
Tgt | DRSC00672 | 75619 | 56570 | – | 3272 | 2672 | inactive
Hnf4 | DRSC01032 | 7.43e5 | 3.59e5 | – | 34384 | 13516 | inactive
Hnf4 | DRSC03344 | 4.57e5 | 56944 | – | 3437 | 3437 | inactive
mira | DRSC16998 | 1.16e5 | 85832 | – | 5579 | 3574 | inactive
Hmt-1 | DRSC15555 | 1.01e5 | 83744 | – | 3926 | 3420 | inactive
CG6073 | DRSC15962 | 1.79e5 | 7.46e5 | 1.25e5 | 4309 | 45058 | inactive
ex | DRSC00817 | 97664 | 60578 | – | 4172 | 2394 | inactive
barr | DRSC03488 | 66925 | 34375 | – | 1789 | 3447 | inactive
CG1409 | DRSC17910 | 65958 | 2.02e5 | – | 2550 | 8354 | inactive
CG14441 | DRSC17934 | 34699 | 1.19e5 | – | 1565 | 5184 | inactive
CG12470 | DRSC18620 | 79003 | 1.88e5 | – | 2864 | 6886 | inactive
CG8661 | DRSC20115 | 91872 | 2.16e5 | – | 2473 | 9433 | inactive
su(Hw) | DRSC17074 | 1.14e5 | 60416 | – | 4736 | 2662 | inactive
casp | DRSC07164 | 1.37e5 | 81632 | – | 5591 | 3699 | inactive
CG10237 | DRSC02029 | 1.16e5 | 93395 | – | 4249 | 3724 | inactive

9 successive records already listed, quoted:
Gene | dsRNA | firefly Hh reporter signal, replicate 1 | firefly Hh reporter signal, replicate 2 | firefly Hh reporter signal, replicate 3 | Renilla reference signal, replicate 1 | Renilla reference signal, replicate 2 | outcome
side-III | DRSC12155 | 88112 | 97096 | – | 3665 | 2886 | inactive
side-III | DRSC12263 | 68192 | 49421 | – | 2288 | 1440 | inactive
side-III | DRSC12264 | 1.10e5 | 1.43e5 | – | 4514 | 4296 | inactive
CG14324 | DRSC14803 | 80424 | 83796 | – | 2928 | 349 | inactive
ND-39 | DRSC11791 | 89136 | 81789 | – | 3264 | 2885 | inactive
RpL15 | DRSC20963 | 33030 | 51977 | – | 2768 | 6021 | active
CG9760 | DRSC11101 | 25626 | 54228 | 67713 | 4643 | 4251 | inactive
Tgt | DRSC00672 | 75619 | 56570 | – | 3272 | 2672 | inactive
Hnf4 | DRSC01032 | 7.43e5 | 3.59e5 | – | 34384 | 13516 | inactive

Next results follow:
Gene | dsRNA | firefly Hh reporter signal, replicate 1 | firefly Hh reporter signal, replicate 2 | firefly Hh reporter signal, replicate 3 | Renilla reference signal, replicate 1 | Renilla reference signal, replicate 2 | outcome
CG14803 | DRSC18556 | 1.36e5 | 2.88e5 | – | 5003 | 9866 | inactive
CG45263 | DRSC12682 | 2.19e5 | – | – | 4698 | – | inactive
CG45263 | DRSC14357 | 54756 | 82262 | – | 1307 | 2688 | inactive
CG45263 | DRSC14360 | 53831 | 85466 | – | 1657 | 2529 | inactive
CG45263 | DRSC14361 | 58763 | 98880 | – | 2179 | 2945 | inactive
CG45263 | DRSC14363 | 42128 | 85194 | – | 1203 | 3159 | inactive
CkIIbeta2 | DRSC07361 | 54048 | 43878 | – | 1993 | 4509 | inactive
CG43333 | DRSC01917 | 1.15e5 | 49987 | – | 2675 | 4451 | inactive
CG10710 | DRSC09784 | 46829 | 36928 | 40807 | 3845 | 2771 | inactive
CG43316 | DRSC06297 | 63301 | 33321 | – | 1568 | 2684 | inactive
TpnC41C | DRSC04916 | 77307 | 63859 | – | 1705 | 5888 | inactive
CG15128 | DRSC06550 | 97589 | 47024 | – | 2596 | 3155 | inactive
CG15169 | DRSC02470 | 72162 | 42715 | – | 2100 | 4409 | inactive
Ppcs | DRSC14127 | 1.27e5 | 67738 | – | 4946 | 2704 | inactive
CG31717 | DRSC01121 | 4.57e5 | 1.47e5 | – | 26116 | 6539 | inactive
CG15646 | DRSC19682 | 55888 | 2.50e5 | – | 2205 | 10070 | inactive
CG5116 | DRSC15720 | 4.82e5 | 78434 | – | 1953 | 1953 | inactive
CG30380 | DRSC05069 | 1.01e5 | 2.36e5 | – | 6482 | 8929 | inactive
boss | DRSC16916 | 5.12e5 | 89891 | – | 28689 | 6195 | inactive
CG17298 | DRSC15221 | 8.15e5 | 1.88e5 | – | 42258 | 3203 | inactive
fy | DRSC03533 | 75504 | 46389 | – | 2077 | 4012 | inactive
su(sable) | DRSC18839 | 60920 | 1.35e5 | – | 3739 | 7981 | inactive
CG14380 | DRSC14840 | 1.14e5 | 78659 | – | 4365 | 2264 | inactive
CG15199 | DRSC19646 | 54357 | 2.09e5 | – | 1299 | 7604 | inactive
Svip | DRSC08982 | 1.04e5 | 1.89e5 | – | 2935 | 7735 | inactive
Rbpn-5 | DRSC04440 | 89728 | 44123 | – | 3389 | 1677 | inactive
bmm | DRSC10502 | 1.47e5 | 96581 | – | 5524 | 3875 | inactive
CG8303 | DRSC07140 | 75346 | 55163 | – | 1882 | 4219 | inactive
AdamTS-B | DRSC17402 | 4.24e5 | 1.50e5 | – | 22333 | 3001 | inactive
AdamTS-B | DRSC18346 | 1.09e5 | 3.05e5 | – | 3588 | 11828 | inactive
Alp6 | DRSC06710 | 69629 | 53933 | – | 2486 | 2192 | inactive
tmod | DRSC13993 | 5.27e5 | 2.25e5 | – | 28790 | 4250 | inactive
tmod | DRSC14314 | 73232 | 91782 | – | 2471 | 3338 | inactive
tmod | DRSC15076 | 97376 | 93267 | – | 3442 | 3252 | inactive
tmod | DRSC17062 | 52976 | 82641 | – | 790 | 2512 | inactive
sprt | DRSC07323 | 77120 | 52528 | – | 3626 | 2389 | inactive
CG31999 | DRSC17131 | 78571 | 2.10e5 | – | 2086 | 7619 | inactive
CG31999 | DRSC17133 | 73558 | 1.63e5 | – | 2168 | 6865 | inactive
Gale | DRSC08234 | 1.36e5 | 1.10e5 | – | 5981 | 4533 | inactive
reb | DRSC06308 | 82626 | 61945 | – | 2068 | 4699 | inactive
KLHL18 | DRSC15496 | 99589 | 75718 | – | 3888 | 3056 | inactive
spir | DRSC03619 | 87112 | 57242 | – | 2189 | 5941 | inactive
CG11170 | DRSC04090 | 65217 | 75063 | – | 2803 | 2851 | inactive
